Experimental data: US12208140B2, “Targeted delivery to beta cells” (THE BROAD INSTITUTE, INC., priority 2017, dated 2025)
At least one structure is not confirmed: it was looked up by name or label, or the drawing left a doubt.

Test system: human β-cells
Assay: human islet cell-culture EdU proliferation assay
Format: cell-based
Conditions: One μM FK506, EdU+ins+ β-cells
From the text: A human islet cell-culture system and proliferation assay developed by Wagner et al. was used to not only of preserve β-cell function over 7-10 days in culture, but also identify conditions that increase β-cell division.[32] The thymidine analog 5-ethinyl-2′-deoxyuridine (EdU) was used, which, when reacted with an azide-conjugated fluorophore, enables rapid and high-quality imaging of cells that have ever gone through S phase.[34] The detection was paired with insulin immunofluorescence, followed by automated imaging and analysis to identify EdU+ins+ cells after compound treatment. Islet cells were incubated with EdU for 6 days, consistent with the low rate of human β-cell proliferation. […] The quality of the assay was verified by using as a positive control adenoviral overexpression of human CDK6 and cyclin D1.[35]
[38] […] This effect was consistent across >20 human islet donors, irrespective of age, gender, BMI, or cause of death.

## C=CC[C@@H]1/C=C(\C)C[C@H](C)C[C@H](OC)[C@H]2O[C@@](O)(C(=O)C(=O)N3CCCC[C@H]3C(=O)O[C@H](/C(C)=C/[C@@H]3CC[C@@H](O)[C@H](OC)C3)[C@H](C)[C@@H](O)CC1=O)[C@H](C)C[C@@H]2OC [FK506]
  suppression of the stimulation of proliferation by 1 μM 5-IT or 10 μM harmine: completely blocked
